# This is one part of the list. Cut-off read from the data, not from the text of the source: active = 150% or more and inactive = the rest. Single values are uncertain, as repeats are few or missing.
# Test system: Staphylococcus aureus JE2-lux inside RAW 264.7 macrophages
# Assay: intracellular bacterial bioluminescence relative to DMSO vehicle; higher = higher intracellular bacterial metabolic activity
# Conditions: 10 µM; treatment time 4 h; gentamicin 50 µg/ml
row,Structure (SMILES),intracellular bacterial bioluminescence
1,Cc1ccc(C)c(COc2coc(CSc3nncn3C)cc2=O)c1,inactive: 93.8%
2,O=C(CSCc1ccccc1)Nc1nc2c(s1)COc1ccccc1-2,inactive: 52.9%
3,Cc1ccc(NCc2nc3c([nH]2)c(=O)n(C)c(=O)n3C)cc1,inactive: 102%
4,COc1ccc(NC(=O)c2ncoc2-c2ccc(OC)c(OC)c2)c(OC)n1,inactive: 96%
5,CN(C)S(=O)(=O)c1ccc(C(=O)NNC(=O)c2ccc3c(c2)CCCC3)cc1,inactive: 83.5%
6,O=C(NCC1COc2ccccc2O1)C(=O)c1cn(CC(=O)N2CCCCC2)c2ccccc12 (configuration not stated),inactive: 94.9%
7,Clc1ccccc1-n1cc(-c2ccccc2)c2c(N3CCCCC3)ncnc21,inactive: 72.3%
8,Cc1ccc(-n2nnc(C(=O)NCc3ccc(Cl)cc3)c2-n2cccc2)cc1,inactive: 93.9%
9,CS(=O)(=O)Nc1nc2ccc(NC(=O)c3n[nH]c4c3CCCC4)cc2s1,inactive: 95.5%
10,Cc1ccc(/C=C2\SC(=S)N(NC(=O)c3ccccc3Br)C2=O)o1,inactive: 95.2%
11,COc1ccc(-c2cccc(NS(=O)(=O)c3cccc([N+](=O)[O-])c3)c2)nn1,inactive: 69%
12,COc1cccc(C(c2sc3ncnn3c2O)N2CC(C)CC(C)C2)c1 (configuration not stated),inactive: 109%
13,CC(C(=O)NCCn1nc(-c2cccs2)oc1=O)c1ccccc1 (configuration not stated),inactive: 98.4%
14,C=CCOc1ccccc1NC(=O)Cn1cnc2sc(C)cc2c1=O,inactive: 20.4%
15,O=C(Nn1cnc2c(cnn2-c2ccccc2)c1=O)c1cc2ccccc2o1,inactive: 126%
16,CCCc1cc(=O)[nH]c2nnc(SCC(=O)Nc3nc4ccccc4s3)n12,inactive: 99.9%
17,CN1CCCc2cc(C(CNC(=O)c3ccc4c(c3)OCO4)N3CCCCC3)ccc21 (configuration not stated),inactive: 141%
18,N#C/C(=C\c1c(Oc2ccccc2F)nc2ccccn2c1=O)C(N)=O,inactive: 103%
19,O=C(c1cc(-c2ccc3c(c2)OCCO3)on1)N(c1ccccc1)c1ccccc1,inactive: 34.4%
20,O=C(CSc1nnc(-c2cccnc2)n1-n1cccc1)Nc1ccc(Cl)c(C(F)(F)F)c1,inactive: 18.8%
21,Cc1cccc(-n2c(SCC(=O)NNC(=O)c3ccco3)nnc2-c2cccnc2)c1C,inactive: 82.7%
22,Cc1nnc(SCC(=O)NCc2ccc3c(c2)OCO3)s1,inactive: 124%
23,Cc1ccc(NC(=S)N2CCC(NC(=O)c3cccc(F)c3)CC2)cc1C,inactive: 72.8%

row,Structure (SMILES),intracellular bacterial bioluminescence
1,CN1CCc2c(sc(NC(=O)c3cc4cc([NH+]([O-])O)ccc4s3)c2C(N)=O)C1 (configuration not stated),inactive: 56.1%
2,CCOC(=O)c1cc(C)nc2c1c(=O)n(CC(=O)Nc1c(C)cccc1CC)c(=O)n2C,inactive: 65.5%
3,CCOc1ccnc2c1c(=O)n(Cc1cccnc1)c(=O)n2C,inactive: 97.1%
4,CCOc1ccc(-c2cc(C(=O)Oc3cccc(Br)c3)no2)cc1,inactive: 123%
5,CN(C)CCn1c(=O)c2cnc(-c3ccncc3)nc2n(C)c1=O,inactive: 87.2%
6,CCN1C(=O)/C(=C2\SC(=S)NC2=O)c2cc(Br)ccc21,inactive: 95.6%
7,N#Cc1ccc(CSc2cnc3ccccc3n2)cc1,inactive: 63.1%
8,CCOc1ccc(C2CC(=O)Nc3c2cnn3-c2ccc3nncn3n2)cc1OC (configuration not stated),inactive: 99%
9,Cc1cccc(NC(=O)CN2CCC3(CC2)NC(=O)c2ccccc2O3)n1,inactive: 27.1%
10,O=C(CN1CCc2nc(N3CCCC3)[nH]c(=O)c2C1)Nc1cccc(F)c1,inactive: 102%
11,COc1ccc(CC(=O)NCCc2cn3ccc(C)cc3n2)cc1,inactive: 101%
12,Cn1c(Sc2ccc3ccccc3n2)nc2c1c(=O)[nH]c(=O)n2C,inactive: 85.2%
13,CCOC(=O)c1ccc(-n2cc(O)c(C(=O)OC)n2)cc1,inactive: 114%
14,CC1CCN(C(=O)CSc2ccc3nnc(-c4cccc(F)c4)n3n2)CC1,inactive: 120%
15,C=CCc1cccc2cc(C(N)=O)/c(=N\c3ccc(OC)cc3)oc12,inactive: 108%
16,O=C(CSc1nnc2c(n1)[nH]c1ccc(Br)cc12)NCc1ccccc1,inactive: 99.3%
17,COc1cccc(N(C(=O)c2cccs2)C(C(=O)NC2CCCCC2)c2ccc3ncccc3c2)c1 (configuration not stated),inactive: 87.9%
18,CCOc1ccc(-c2nc(SCC(=O)NCCC(C)C)n3[nH]c(=O)cc3n2)cc1,inactive: 104%
19,Cc1ccc(CN2CCC(CNC(=O)c3cn[nH]c3C3CCNCC3)CC2)cc1,inactive: 98.3%
20,CCc1cccc(CC)c1NC(=O)c1cncc(Br)c1,inactive: 93.1%
21,O=C(CSc1nc2[nH]ncc2c(=O)n1-c1ccccc1Br)NCc1ccco1,inactive: 109%
22,CC1=NNC(=O)/C1=N\Nc1ccc(S(=O)(=O)Nc2nc(C)cc(C)n2)cc1,inactive: 88.7%
23,Cc1cc(C)cc(NC(=O)CN2C(=O)C3(SCC(=O)N3c3ccc(F)cc3)c3ccccc32)c1 (configuration not stated),inactive: 118%

# 3 entries from above, bar-delimited.
row | Structure (SMILES) | intracellular bacterial bioluminescence
14 | C=CCOc1ccccc1NC(=O)Cn1cnc2sc(C)cc2c1=O | inactive: 20.4%
2 | CCOC(=O)c1cc(C)nc2c1c(=O)n(CC(=O)Nc1c(C)cccc1CC)c(=O)n2C | inactive: 65.5%
17 | COc1cccc(N(C(=O)c2cccs2)C(C(=O)NC2CCCCC2)c2ccc3ncccc3c2)c1 (configuration not stated) | inactive: 87.9%

# More compounds.

row,Structure (SMILES),intracellular bacterial bioluminescence
1,COc1cccc(C(=O)Nn2c(C3CCC3)nc3ccccc3c2=O)c1,inactive: 123%
2,Cc1ccc(NS(=O)(=O)c2ccc(Cl)cc2)c(-c2nc3ccccc3[nH]c2=O)c1,inactive: 73.5%
3,N#Cc1c(N)c(C(=O)c2ccc(Cl)cc2)n2ccccc12,inactive: 85.6%
4,COc1ccccc1NCN1C(=O)C(=O)c2ccccc21,inactive: 115%
5,COc1ccc(C(=O)Nc2sc(Cc3ccc4c(c3)OCO4)c(C)c2C#N)cc1,inactive: 41.3%
6,Cc1cc2cc(CNC(=O)c3ccc([N+](=O)[O-])cc3)ccc2[nH]1,inactive: 94%
7,Cc1ccc(-c2ccc(/C=C3\SC(=S)N(CC(=O)O)C3=O)o2)cc1,inactive: 55.3%
8,CCN(CC)c1ccc(C2C3=C(CCCC3=O)Nc3[nH]c(=O)[nH]c(=O)c32)cc1 (configuration not stated),active: 157%
9,Cc1ccc(S(=O)(=O)c2nnn3c2nc(NCc2ccc(Cl)cc2)c2ccccc23)c(C)c1,inactive: 114%
10,COc1ccc(CN(Cc2cc3ccc(C)c(C)c3nc2Cl)C(=O)C2CC2)cc1,inactive: 70.8%
11,O=C(COc1ccccc1)N1CCC[C@@H]1Cn1nc(-c2cccs2)ccc1=O,inactive: 69%
12,COC(=O)c1c(NC(=O)CCc2ccc(C)o2)sc2c1CCCC2,inactive: 92.9%
13,COCCCNC(=O)C1CCN(c2ncnc3onc(-c4ccc(C)cc4)c23)CC1,inactive: 105%
14,O=C(Nc1ccc(-c2nc3cccnc3s2)cc1)c1ccc(Br)o1,inactive: 83.2%
15,O=C(O)/C=C/c1ccc2c(-c3ccccc3)onc2c1,inactive: 81.6%
16,Cc1cc(Cl)cc2sc(NC(=O)CN3C(=O)CCC3=O)nc12,inactive: 24.1%
17,O=C(CSc1nc(O)c2nc[nH]c2n1)N1CCCC1,inactive: 116%
18,O=C(OC(C(=O)NC1CCCCC1)c1ccc2ncccc2c1)c1cccs1 (configuration not stated),inactive: 106%
19,Cc1cc(C)c2nc(NCCNC(=O)c3ccco3)c(C#N)cc2c1,inactive: 120%
20,COc1ccc(CCNc2nc(C(F)(F)F)nc3c(C)cc(C)cc23)cc1OC,inactive: 83.9%
21,CCOC(=O)c1sc2nc(Cc3ccc(OC)c(OC)c3)[nH]c(=O)c2c1C,inactive: 80.7%
22,Cc1ccc2[nH]c(=O)c(N3CCOCC3)c(-c3ccccc3)c2c1,inactive: 77.6%
23,O=C(NCc1ccco1)c1ccc2c(c1)C(=O)c1ccccc1-2,inactive: 121%

# Sorted by length of the SMILES (smallest number first): three of the compounds above
row,Structure (SMILES),intracellular bacterial bioluminescence
15,O=C(O)/C=C/c1ccc2c(-c3ccccc3)onc2c1,inactive: 81.6%
16,Cc1cc(Cl)cc2sc(NC(=O)CN3C(=O)CCC3=O)nc12,inactive: 24.1%
2,Cc1ccc(NS(=O)(=O)c2ccc(Cl)cc2)c(-c2nc3ccccc3[nH]c2=O)c1,inactive: 73.5%

# Additional results:

row,Structure (SMILES),intracellular bacterial bioluminescence
1,Cc1cc(NC(=O)CSC2=NS(=O)(=O)c3cc(Cl)ccc3N2)no1,inactive: 126%
2,CNc1nc2c(c(=O)n(C)c(=O)n2C)n1CC(O)COc1ccccc1C (configuration not stated),inactive: 116%
3,COc1ccccc1N1CCN(c2nccn3nc(-c4ccc(C)c(C)c4)cc23)CC1,inactive: 76.7%
4,CCOCCOC(=O)c1ccc2c(c1)N(Cc1ccncc1)C(=O)c1ccccc1S2,inactive: 0.675%
5,CCOC(=O)CCc1c(C)[nH]c2c(C(=O)Nc3ccccc3C)cnn2c1=O,inactive: 113%
6,Clc1cccc(NCc2nnc3n2CCCCC3)c1,inactive: 60.5%
7,O=C(/C=C1/Nc2ccccc2NC1=O)Nc1cccc(C(F)(F)F)c1,inactive: 5.37%
8,CCC(SC1=Nc2ccccc2C2=NC(C)C(=O)N12)C(=O)Nc1cc(F)ccc1F (configuration not stated),inactive: 102%
9,CCc1cc(Sc2nnc(NC(C)=O)s2)n2ncnc2n1,inactive: 74.5%
10,CNC(=O)c1ccsc1NC(=O)CN1C(=O)CCC1=O,inactive: 48.9%
11,COc1ccccc1NC(=O)C1=C(C)NC(=O)NC1c1ccc(Cl)cc1Cl (configuration not stated),inactive: 65.9%
12,Cc1ccc2nc(NCCCNS(=O)(=O)c3ccc4c(c3)OCCO4)c(C#N)cc2c1,inactive: 69.5%
13,O=C(Nc1ccc2scnc2c1)c1cc2c(ccc3ccccc32)oc1=O,inactive: 102%
14,Cc1cnc(NC(=O)CSc2ncnc3c(-c4ccc(F)cc4)nsc23)s1,inactive: 91.1%
15,COc1ccc(Cc2nc3c4c(C)c(C)n(-c5ccc(C)cc5)c4ncn3n2)cc1,inactive: 103%
16,Cc1cc(N2CCN(C(=O)c3ccc(=O)n(C)c3)CC2)nc(C)n1,inactive: 118%
17,O=C(CN1C(=O)c2ccccc2C1=O)Nc1nc2c(s1)CSc1ccccc1-2,inactive: 20.2%
18,COc1ccc(C(=O)N2CCN(c3nc(C)c(C)c(=O)[nH]3)CC2)cc1,inactive: 109%
19,COc1ccc(-c2nsc3c(SCC(C)=O)ncnc23)cc1,inactive: 115%
20,CCOc1ccc(CC(=O)Oc2cc(C)[nH]c(=O)c2[N+](=O)[O-])cc1,inactive: 126%
21,COc1ccc(Br)cc1CNC(=O)c1nccn1Cc1ccccc1C,inactive: 15.6%
22,Cc1ccc([N+](=O)[O-])cc1N1C(=O)CC(Nc2ccc(N3CCOCC3)cc2)C1=O (configuration not stated),inactive: 118%
23,Cc1cc2c(=O)n(CC(=O)NC(c3cccs3)C(C)C)cnc2s1 (configuration not stated),inactive: 89.5%

# Source: the supplement of paper PMC12578635
